Data as given in PubChem BioAssay AID652243 (Drosophila RNAi Screening Center, 2013)

Purpose: 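Fly genes required for human androgen receptor driven transcription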 (primary screen)
Cell system: Drosophila S2R+ cells
Reagents: long dsRNA against Drosophila genes
Duration: 72 h (48 h, then 24 h hormone)
Treatment: synthetic androgen R1881 at 10 nM for 24 h
Read-out: 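Per-well raw luminescence of the androgen-driven firefly reporter and of the Renilla control, two replicates each, without normalisation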
Direction: firefly reporter light: higher = more light from androgen-responsive reporter; Renilla control light: higher = more constitutive control signal (cell number, transfection)
Call rule: 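Hit when the log firefly-to-Renilla ratio dropped or increased by a fixed fold versus the mean of GFP or LacZ controls across duplicate plates; lowering cut given as 1.5 and as 3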
Meaning of the calls: active = hit: reporter lowered or raised; inactive = no hit
The deposit covers about 24,000 reagents; this is a random part of those that have a named target and a result. In the full data, 246 (1%) are marked active. 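Plates not normalised; calls are printed but the firefly/Renilla ratio behind them is not deposited; fold cut for lowering reported inconsistently.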 Raw values are not corrected between plates. No sequences are given here. The record does not give: the amount of reagent.

target,DRSC id,"firefly reporter light, replicate 1","firefly reporter light, replicate 2","Renilla control light, replicate 1","Renilla control light, replicate 2",call
CG10116,DRSC09700,1.07e6,8.34e5,1.19e6,1.53e6,inactive
tn (retired record),DRSC05768,1.43e5,1.29e5,4.47e5,4.18e5,inactive
tn (retired record),DRSC06532,4.91e5,5.96e5,1.18e6,1.24e6,inactive
tn (retired record),DRSC27711,2.33e5,2.69e5,4.80e5,7.26e5,inactive
CG14257,DRSC14752,1.76e5,1.36e5,2.73e6,2.69e6,inactive
CG14257,DRSC27835,3.25e5,3.26e5,4.73e5,6.08e5,inactive
Rbp1,DRSC16817,51326,24319,8.48e5,5.39e5,active
Prp4k,DRSC08144,6.47e5,8.52e5,1.53e6,1.69e6,active
Prp4k,DRSC27510,1.96e5,2.05e5,4.64e5,8.75e5,inactive
Prp4k,DRSC37043,,,,,inactive
BHD,DRSC11017,1.55e6,4.85e5,1.97e6,8.24e5,inactive
BHD,DRSC22833,4.46e5,1.17e6,3.74e5,8.58e5,inactive
BHD,DRSC27469,3.04e5,4.55e5,6.85e5,8.90e5,inactive
ms(3)76Cc,DRSC11071,2.85e5,2.24e5,1.82e6,2.14e6,inactive
ms(3)76Cc,DRSC21630,1.85e5,1.35e5,2.43e6,1.95e6,inactive
Pi3K21B,DRSC00771,5.07e5,5.90e5,1.91e6,9.88e5,inactive
Pi3K21B,DRSC36731,,,,,inactive
Pi3K21B,DRSC36732,,,,,inactive
CG15472,DRSC18055,1.84e5,2.81e5,2.16e6,1.62e6,inactive
chp,DRSC16925,71012,42670,6.39e5,3.44e5,inactive
chp,DRSC26106,2.62e5,2.36e5,8.31e5,6.30e5,inactive
CG13526,DRSC04168,2.09e5,4.09e5,1.49e6,2.28e6,inactive
eIF4H2,DRSC14582,49978,37841,7.72e5,4.96e5,inactive
eIF4H2,DRSC27363,2.58e5,2.19e5,7.26e5,9.11e5,inactive
Ugt303B1,DRSC15141,2.21e5,2.41e5,2.73e6,2.53e6,inactive
CG13654,DRSC14654,1.74e5,1.46e5,2.24e6,3.08e6,inactive
Prp3,DRSC10912,2.20e5,1.73e5,2.27e6,1.96e6,inactive
ND-B16.6,DRSC18306,2.14e5,2.63e5,2.26e6,3.28e6,inactive
ND-B16.6,DRSC22600,6.74e5,6.35e5,8.78e5,7.15e5,inactive
ND-B16.6,DRSC26200,2.69e5,2.75e5,8.20e5,8.39e5,inactive
Nfs1,DRSC02154,7.51e5,5.87e5,1.56e6,1.61e6,inactive
wrapper,DRSC04723,6.34e5,4.37e5,1.18e6,1.07e6,inactive
rngo,DRSC19903,5.24e5,4.56e5,2.64e6,2.81e6,inactive
rngo,DRSC26936,4.13e5,4.79e5,8.49e5,7.69e5,inactive
Ttc19,DRSC02474,1.09e5,1.23e5,8.98e5,1.02e6,inactive
qm,DRSC11386,1.83e5,1.50e5,1.98e6,2.28e6,inactive
qm,DRSC26597,2.23e5,1.87e5,6.91e5,4.96e5,inactive
ValRS-m,DRSC10535,2.58e5,2.59e5,2.71e6,2.20e6,inactive
Coprox,DRSC01996,4.94e5,6.46e5,1.64e6,1.88e6,inactive
Coprox,DRSC28744,3.48e5,4.29e5,7.61e5,1.32e6,inactive
slx1,DRSC12290,37049,76303,1.17e6,1.67e6,inactive
mh,DRSC20168,2.86e5,3.64e5,1.82e6,2.45e6,inactive
Coq8,DRSC19900,5.39e5,4.60e5,3.40e6,2.78e6,inactive
Coq8,DRSC36989,,,,,inactive
Exd2,DRSC16105,1.42e5,1.99e5,2.73e6,3.10e6,inactive
Exd2,DRSC25938,3.33e5,2.55e5,1.00e6,8.39e5,inactive
NPFR,DRSC12173,1.29e5,1.46e5,3.12e6,2.72e6,inactive
CG4066,DRSC15541,1.28e5,1.11e5,2.24e6,2.03e6,inactive
CG4066,DRSC29744,2.39e5,5.12e5,7.19e5,8.49e5,inactive
CG6712,DRSC02981,4.49e5,5.41e5,2.12e6,1.42e6,inactive
CG6712,DRSC21690,6.01e5,6.05e5,2.24e6,2.03e6,inactive
betaTub85D,DRSC16910,2.10e5,1.97e5,2.24e6,2.22e6,inactive
betaTub85D,DRSC25043,1.06e6,8.71e5,1.16e6,9.60e5,inactive
CG34216,DRSC38631,8.84e5,8.64e5,2.06e6,2.41e6,inactive
CG14621,DRSC20635,1.90e5,2.22e5,7.50e5,5.71e5,inactive
CG14621,DRSC27094,4.03e5,3.57e5,6.86e5,5.66e5,inactive
CG17378,DRSC02616,1.74e5,2.20e5,1.46e6,1.51e6,inactive
CadN,DRSC03286,2.32e5,2.15e5,2.88e6,3.52e6,inactive
CadN,DRSC27368,3.45e5,3.08e5,5.92e5,6.84e5,inactive
Ldaf1,DRSC17963,1.51e5,98043,1.11e6,7.82e5,inactive
Ldaf1,DRSC25860,5.23e5,4.92e5,9.74e5,9.47e5,inactive
CG10631,DRSC02081,1.08e6,6.65e5,1.86e6,2.31e6,inactive
Chsy,DRSC20175,3.79e5,2.81e5,2.84e6,3.52e6,inactive
Chsy,DRSC20176,7.62e5,7.45e5,2.04e6,1.22e6,inactive
CenG1A,DRSC02538,2.47e5,2.47e5,1.94e6,2.20e6,inactive
CenG1A,DRSC03505,2.96e5,2.70e5,2.65e6,2.37e6,inactive
CenG1A,DRSC03506,1.69e5,2.00e5,1.29e6,1.61e6,inactive
CenG1A,DRSC28029,7.58e5,4.35e5,1.90e6,1.58e6,inactive
CG5282,DRSC11775,6783,19000,84554,1.18e5,inactive
Vml,DRSC17695,1.06e6,8.41e5,6.57e5,5.21e5,inactive
Vml,DRSC18529,3.06e5,3.57e5,3.12e6,3.07e6,inactive
Vml,DRSC28030,5.74e5,5.84e5,8.65e5,8.30e5,inactive
Vml,DRSC29208,6.28e5,5.70e5,1.44e6,1.18e6,inactive
CG9776,DRSC12127,62825,34161,3.87e5,3.52e5,inactive
